The campaign covered roughly 31,000 sequences. About 1,400 (4.5%) were called active.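 Rule for the calls: active = median seed-adjusted z-score above 1 or below -1; inactive = the rest.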 Some of the results follow.

The test is described as follows: Novel Modifiers of Survival Motor Neuron (SMN) Protein: Gene Identification via Genome-wide siRNA Screen.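 Note: luminescence tracks full-length SMN protein made from the SMN2 reporter.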 The settings on record: HEK293T SMN2-luciferase reporter, siRNA knockdown, 72 h; actives lie on both sides. The gist of the method:
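Luciferase signal, proportional to full-length SMN made from an SMN2 cDNA reporter in stable HEK293T cells, was read 72 h after siRNA reverse transfection. Values were expressed as MAD scores after non-targeting-control normalization and log10 conversion; seed analysis flagged off-targets.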
In general terms: A reporter such as luciferase makes a cellular process visible.
Take GGAAUGGAAUUUAAAUUUATT against EGLN3: the median seed-adjusted z-score is inactive: -0.0575.

For CCAGAACCGACGCUACAAATT against NKX2-6, the median seed-adjusted z-score was inactive: -0.00448. Under CGCUAUGCGGAGUUCUACATT against ALOX12B stands inactive: 0.0071; under GGAUAAGAACAUCAUAGAATT against SYK, inactive: 0.567.

In the case of GGAUAAAUCGAUUCAUGUATT against VILL, the median seed-adjusted z-score is inactive: 0.518.

As to GGGCAGUUGAUGAACGAAUTT against COG2, the median seed-adjusted z-score is inactive: 0.791. In the case of CCCAUGUGAUCAAACGGUATT against SNX26 it was inactive: -0.788; in that of AGAAAUUGCUGUCCCAUAATT against RNF185, inactive: -0.388; in that of GGAACAAAUUCUUAUGCGATT against MORC3, inactive: 0.245. In the case of GAACAUGAGUAUAAGUGUGTT against PTPRC it was inactive: 0.197; in that of AGUAUUUCGUGCGCACCAATT against MGAT3, inactive: -0.118; in that of GGACGACCUCUAUGACCAATT against LSR, inactive: 0.306.

With GGCAAGGUCUUGUCACUGATT against STK11IP, the median seed-adjusted z-score was inactive: 0.0745. In the case of ACAUUUAGCCCUCUACUCATT against SLC46A1 it was inactive: -0.00763.

For the sequence CAUGCGUCCUCAUAUCUUUTT against CHRNA9, the median seed-adjusted z-score is inactive: -0.454. CUAUCAUACAAUUCCGAGATT against APPL2: the median seed-adjusted z-score was inactive: -0.245. In the case of CUUGUUCCCUAUUCAAUCATT against HSPA4L it was inactive: 0.288; in that of GAAGUAGGAAGAUCAUGUATT against CPSF3, inactive: -0.918; in that of GGCCUGAUGCAGCUACUAUTT against TPP2, inactive: -0.562. Under CGAAUUUGACGAGAACAAATT against ARPC5L stands inactive: -0.36.

For the sequence CGAUGUGAUGAAUAAUUCUTT against PRPH2, the median seed-adjusted z-score is inactive: 0.0931. Under GAAUGAGCUUAGCAAUCCATT against BAI3 stands inactive: 0.0657. Take CCACUGCGGACCAACUAUATT against NPTX1: the median seed-adjusted z-score was inactive: -0.117. Regarding GGGUAACAAGGUAGACAAATT against RAB9B, the median seed-adjusted z-score was inactive: -0.0301. In the case of AGAUGAACCUGUCACUCAATT against DUSP7 it was inactive: 0; in that of GGAUGACAACGAACGCAUUTT against RASSF2, inactive: -0.649; in that of CAUUAGAUCAGGCAAGUGATT against METAP2, inactive: 0.325.

CCUUCAAUGGUAGCGAGAATT against KRT31: the median seed-adjusted z-score is inactive: 0.604.

For the sequence ACUCAGUCCUGUUUGACAATT against ADC, the median seed-adjusted z-score was inactive: -0.157.

The values above are taken from PubChem BioAssay AID1347426 (Functional Genomics Laboratory (NCATS/FGL), 2020).
